# Reference: PMC11116816
# Sequences of proteins named here, by UniProt entry; tags and fusion partners are left off. Residues count along the entry.
# UniProt Q99MB1, residues 26-905: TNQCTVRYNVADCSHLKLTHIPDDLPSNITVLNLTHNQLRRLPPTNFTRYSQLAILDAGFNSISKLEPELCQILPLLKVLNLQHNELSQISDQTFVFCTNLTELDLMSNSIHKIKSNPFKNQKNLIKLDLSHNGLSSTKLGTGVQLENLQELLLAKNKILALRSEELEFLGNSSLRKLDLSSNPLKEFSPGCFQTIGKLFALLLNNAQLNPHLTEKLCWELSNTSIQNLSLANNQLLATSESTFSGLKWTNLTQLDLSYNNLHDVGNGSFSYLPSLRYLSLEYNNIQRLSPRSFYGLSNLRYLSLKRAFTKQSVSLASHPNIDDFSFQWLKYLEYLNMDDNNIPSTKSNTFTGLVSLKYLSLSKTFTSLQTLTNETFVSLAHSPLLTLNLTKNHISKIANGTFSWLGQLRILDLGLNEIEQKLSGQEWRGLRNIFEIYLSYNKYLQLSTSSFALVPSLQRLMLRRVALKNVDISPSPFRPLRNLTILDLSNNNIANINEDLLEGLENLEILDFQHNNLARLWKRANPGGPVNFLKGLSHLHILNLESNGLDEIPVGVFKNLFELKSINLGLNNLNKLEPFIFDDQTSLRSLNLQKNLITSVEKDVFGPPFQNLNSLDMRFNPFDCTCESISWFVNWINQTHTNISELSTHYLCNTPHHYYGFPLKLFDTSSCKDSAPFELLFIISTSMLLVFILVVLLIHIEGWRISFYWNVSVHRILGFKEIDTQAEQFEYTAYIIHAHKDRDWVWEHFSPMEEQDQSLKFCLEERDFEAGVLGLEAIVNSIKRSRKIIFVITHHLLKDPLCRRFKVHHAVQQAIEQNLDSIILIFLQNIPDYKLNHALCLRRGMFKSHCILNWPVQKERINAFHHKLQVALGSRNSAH
# Where a chain is given by its changes, count along the chain named. In names and notes the source's numbering stands. No constants are given. Whether binding was seen depends on the method and setting. In cells and extracts the contact can be indirect. Some entries that bind do so weakly or less than the wild type. Where a sequence is shown, tags or fusion partners need not be part of it.
# T1: human UNC93B1 wild type with C-terminal 3xFLAG (human) (UniProt Q9H1C4)
# T1 sequence: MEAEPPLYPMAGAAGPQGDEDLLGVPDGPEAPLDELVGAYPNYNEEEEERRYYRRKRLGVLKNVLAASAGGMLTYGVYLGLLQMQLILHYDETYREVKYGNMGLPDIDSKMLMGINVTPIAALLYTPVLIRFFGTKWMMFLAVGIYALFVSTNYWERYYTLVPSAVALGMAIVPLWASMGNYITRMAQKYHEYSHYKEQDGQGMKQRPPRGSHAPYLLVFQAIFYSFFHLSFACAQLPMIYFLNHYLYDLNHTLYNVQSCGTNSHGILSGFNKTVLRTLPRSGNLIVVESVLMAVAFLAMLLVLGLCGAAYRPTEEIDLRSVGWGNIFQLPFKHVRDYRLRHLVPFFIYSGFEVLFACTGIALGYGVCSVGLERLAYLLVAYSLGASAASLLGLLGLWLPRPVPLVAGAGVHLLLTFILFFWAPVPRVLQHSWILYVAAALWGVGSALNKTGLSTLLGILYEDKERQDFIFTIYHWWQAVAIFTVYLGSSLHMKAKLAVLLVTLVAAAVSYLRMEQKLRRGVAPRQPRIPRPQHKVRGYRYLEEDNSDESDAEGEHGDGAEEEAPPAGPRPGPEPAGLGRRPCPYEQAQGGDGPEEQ
# T2: human UNC93B1 T93I variant with C-terminal 3xFLAG (human) (UniProt Q9H1C4)
# T2 sequence: T1 sequence with T93I
# T3: mouse UNC93B1 wild type with C-terminal 3xFLAG (mouse) (UniProt Q8VCW4)
# T3 sequence: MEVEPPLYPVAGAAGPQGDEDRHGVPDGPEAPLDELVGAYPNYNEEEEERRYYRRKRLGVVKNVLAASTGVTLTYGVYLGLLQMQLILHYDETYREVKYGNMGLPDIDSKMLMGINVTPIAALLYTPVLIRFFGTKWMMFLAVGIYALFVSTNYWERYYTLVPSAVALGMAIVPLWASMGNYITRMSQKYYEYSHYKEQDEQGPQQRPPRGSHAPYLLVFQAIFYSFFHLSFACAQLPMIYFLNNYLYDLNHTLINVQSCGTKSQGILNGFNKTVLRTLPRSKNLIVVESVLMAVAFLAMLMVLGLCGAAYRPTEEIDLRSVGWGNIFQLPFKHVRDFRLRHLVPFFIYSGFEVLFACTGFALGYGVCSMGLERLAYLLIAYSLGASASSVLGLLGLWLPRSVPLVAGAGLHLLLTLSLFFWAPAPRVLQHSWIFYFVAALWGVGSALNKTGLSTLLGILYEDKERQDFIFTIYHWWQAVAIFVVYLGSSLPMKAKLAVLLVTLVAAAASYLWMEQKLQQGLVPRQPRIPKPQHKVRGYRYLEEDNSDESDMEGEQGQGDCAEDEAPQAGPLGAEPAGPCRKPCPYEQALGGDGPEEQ
# T4: murine TLR7-HA (mouse) (UniProt P58681)
# T4 sequence: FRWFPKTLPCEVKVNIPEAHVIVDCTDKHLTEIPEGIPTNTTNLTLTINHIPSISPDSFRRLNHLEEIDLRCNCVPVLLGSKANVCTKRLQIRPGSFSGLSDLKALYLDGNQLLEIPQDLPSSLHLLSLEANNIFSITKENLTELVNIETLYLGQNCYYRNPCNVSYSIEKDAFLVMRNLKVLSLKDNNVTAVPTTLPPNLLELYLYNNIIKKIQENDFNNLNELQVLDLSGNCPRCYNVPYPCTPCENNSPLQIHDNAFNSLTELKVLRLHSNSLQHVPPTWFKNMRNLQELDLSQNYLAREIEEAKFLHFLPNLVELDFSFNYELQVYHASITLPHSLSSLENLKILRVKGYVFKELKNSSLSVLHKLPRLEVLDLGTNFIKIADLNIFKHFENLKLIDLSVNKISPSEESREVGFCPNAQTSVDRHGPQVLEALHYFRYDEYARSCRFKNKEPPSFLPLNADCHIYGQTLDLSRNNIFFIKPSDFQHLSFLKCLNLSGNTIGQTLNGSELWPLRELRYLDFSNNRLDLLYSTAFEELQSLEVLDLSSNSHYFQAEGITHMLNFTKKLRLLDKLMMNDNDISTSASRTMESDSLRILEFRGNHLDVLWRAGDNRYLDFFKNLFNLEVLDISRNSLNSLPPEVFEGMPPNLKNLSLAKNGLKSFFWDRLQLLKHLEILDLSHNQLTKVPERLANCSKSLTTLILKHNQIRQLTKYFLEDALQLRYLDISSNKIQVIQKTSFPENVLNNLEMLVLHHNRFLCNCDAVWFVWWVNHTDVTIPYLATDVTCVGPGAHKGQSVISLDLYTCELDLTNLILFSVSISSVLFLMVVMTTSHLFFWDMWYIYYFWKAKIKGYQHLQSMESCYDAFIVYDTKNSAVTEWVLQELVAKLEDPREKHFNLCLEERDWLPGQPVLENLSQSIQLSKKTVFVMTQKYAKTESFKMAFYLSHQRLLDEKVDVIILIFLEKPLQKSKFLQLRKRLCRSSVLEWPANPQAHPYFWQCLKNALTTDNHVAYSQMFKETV
# B1: endogenous TLR7 of RAW264.7 macrophages (receptor, UniProt P58681 27-1050)
# chain: T4 sequence
# B2: human UNC93B1 wild type with C-terminal 3xFLAG (protein, UniProt Q9H1C4 1-597)
# chain: T1 sequence
# B3: human UNC93B1 T93I variant with C-terminal 3xFLAG (protein, UniProt Q9H1C4 1-597)
# chain: T1 sequence with T93I
# Tests used:
# [1] = target: T1, human UNC93B1 wild type with C-terminal 3xFLAG (human); assay: co-IP; anti-Flag magnetic resin IP of UNC93B1-3xFLAG from CHAPS lysates (0.5% CHAPS, 150 mM NaCl, 40 mM HEPES, pH 7.6, 20 mM N-ethylmaleimide) of Unc93b1−/− RAW264.7 macrophages expressing the indicated variants; washed three times in lysis buffer; immunoblot of the associated protein
# [2] = target: T2, human UNC93B1 T93I variant with C-terminal 3xFLAG (human); assay: as above
# [3] = target: T3, mouse UNC93B1 wild type with C-terminal 3xFLAG (mouse); assay: as above
# murine TLR7-HA (mouse) = target: T4, murine TLR7-HA (mouse); assay: co-IP; immunoprecipitation of TLR7-HA from purified phagosomes of Unc93b1−/− RAW264.7 macrophages expressing UNC93B1-3xFLAG variants; immunoblot and quantification of co-precipitated UNC93B1
Molecule,binding [1],binding [2],binding [3],binding (murine TLR7-HA (mouse))
murine TLR3-HA (from UniProt Q99MB1 26-905) (receptor),binds,binds,,
B1,binds,binds,binds,
B2,,,,binds
B3,,,,binds
